Laboratory results as given in PubChem BioAssay AID445 (National Center for Advancing Translational Sciences (NCATS), 2006).
The list shows a part of the results. The main result of the screen is listed elsewhere. These columns were measured beside it and carry no call. Most of these compounds were active or inconclusive in the main read-out, so they are no random draw. Potencies come from curve fits of mixed quality, noted in brackets.

Test: IkB Signaling
Conditions: ABC-DLBCL IkBa-CBG/CBR dual luciferase ratio (green luciferase fused to IkBa over red control in OCI-Ly3 lymphoma cells), 4 h; measured here: control luc red channel unless noted
In short: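 In this assay, an IκBα–CBG68 fusion accumulates when IKK-driven degradation is blocked; native CBR normalizes for cell number. OCI-Ly3 cells were treated 4 h with compound and doxycycline, then green and red light read after Chroma-Glo addition.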
In the case of `CC(=O)c1ccc(C(=O)N(Cc2cccnc2)c2nc3c(Cl)cccc3s2)cc1`, the AC50 is reported as 39.8 µM [falling, single point].
For `Cc1ccc(S(=O)(=O)c2nnn3c2nc(NCc2cccs2)c2sccc23)cc1C`, the AC50 was 10 µM [falling, partial curve].
With `Cc1cccc(CS(=O)(=O)c2ncc(Cl)c(C(=O)Nc3nc4ccc(F)cc4s3)n2)c1` the AC50 was 7.94 µM [falling, full curve].
For `Cn1nnnc1SCCNCc1ccccc1OCc1ccc(Cl)cc1Cl`, the AC50 was 39.8 µM [falling, single point].
With `CC(C)N(C(=O)c1cc2c(Cl)nc3ccccc3c2s1)C1CCCCC1` the AC50 was 15.8 µM [falling, partial curve].
For `COc1cccc2sc(N3CCN(C(=O)CS(=O)(=O)c4ccc(Cl)cc4)CC3)nc12`, the AC50 was 39.8 µM [falling, single point].
In the case of `COc1cccc(CNc2ncc(-c3ccc(Br)cc3)n2C)c1`, the AC50 is reported as 15.8 µM [falling, partial curve].
For `O=C(NCCCn1ccnc1)c1cc2c(s1)CCCCC2`, the AC50 was 6.31 µM [falling, partial curve].
For `O=C(NCCc1ccccc1)c1c(O)c2cccc3c2n(c1=O)CC3`, the AC50 was 15.8 µM [falling, partial curve].
With `COc1ccccc1-c1cc(C(F)(F)F)nc(NCc2ccco2)n1` the AC50 was 20 µM [falling, partial curve].
In the case of `Nc1c(-c2nc(-c3ccccc3)cs2)c2ccccn2c1C(=O)c1ccc2c(c1)OCO2`, the AC50 is reported as 1.26 µM [falling, full curve].
With `CCN1C(C(=O)c2ccccc2)=C(OC(=O)COc2ccccc2)c2ccccc2S1(=O)=O` the AC50 was 12.6 µM [falling, partial curve].
With `Cc1cc(C)c(S(=O)(=O)N2CCN(Cc3nc4ccc(C)cc4o3)CC2)c(C)c1` the AC50 was 39.8 µM [falling, partial curve].
With `CCc1ccccc1Nc1cc(C(=O)NCCc2ccccc2)c2ccccc2n1` the AC50 was 7.94 µM [falling, partial curve].
For `COc1ccccc1NC(=O)C1=C(C)Nc2nc3ccccc3n2C1c1cccc(Br)c1` (stereo unspecified), the AC50 was 10 µM [falling, partial curve].
For `O=C(Cn1c(=O)n(-c2ccc(F)cc2)c(=O)c2sc3ccccc3c21)NC1CCCCC1`, the AC50 was 39.8 µM [falling, single point].
In the case of `COc1ccc(OC)c(CCNc2nccn(-c3ccc(C)c(C)c3)c2=O)c1`, the AC50 is reported as 31.6 µM [falling, single point].
In the case of `CCCn1ccc2c(OCC(=O)Nc3ccccc3OCC)cccc2c1=O`, the AC50 is reported as 7.94 µM [rising, single point].
With `O=C(NCC(c1cccnc1)N1CCOCC1)C(=O)Nc1ccc(F)cc1` (stereo unspecified) the AC50 was 25.1 µM [falling, partial curve].
With `O=C(Nc1ccc2nc(SCC(=O)N3CCCc4ccccc43)sc2c1)c1cccc(Cl)c1` the AC50 was 1 µM [falling, full curve, poor fit].
In the case of `COc1ccc(CCNC(=O)C2CCN(c3nc4ccccc4nc3C(F)(F)F)CC2)cc1OC`, the AC50 is reported as 20 µM [falling, single point].
For `CCOc1ccccc1-n1c(COc2ccc(C)cc2)nnc1SCC(N)=O`, the AC50 was 10 µM [falling, partial curve].
With `COc1ccc(C(=O)Oc2c(Sc3ccccc3)c(C)nn2-c2ccccc2)cc1OC` the AC50 was 12.6 µM [falling, partial curve].
With `COc1ccc(-c2noc(Cn3c(=O)c4ccccc4n(CC(=O)Nc4cccc(C(F)(F)F)c4)c3=O)n2)cc1` the AC50 was 7.94 µM [falling, partial curve].
For `Cc1ccc(C)c(NS(=O)(=O)c2ccc3c(c2)n(C)c(=O)n3C)c1`, the AC50 was 31.6 µM [rising, partial curve].
With `N#Cc1c(N)nc(SCc2ccccc2)c(C#N)c1-c1ccco1` the AC50 was 39.8 µM [falling, partial curve].
With `O=C(c1cccc(Cl)c1)N(Cc1ccco1)Cc1ccccc1Cl` the AC50 was 15.8 µM [falling, partial curve].
In the case of `CC(=O)N1c2ccccc2C(=O)C1N1CCCCC1` (stereo unspecified), the AC50 is reported as 10 µM [falling, partial curve].
In the case of `Cc1nc(N)sc1-c1csc(Nc2ccccn2)n1`, the AC50 is reported as 12.6 µM [falling, partial curve].
With `COc1ccccc1NC(=O)Cn1c(=O)n(-c2cccc(Cl)c2)c(=O)c2c1c1cc(C)ccc1n2C` the AC50 was 0.0501 µM [falling, full curve].
For `COc1cccc(NC(=O)CSc2nnc(-c3cccs3)o2)c1`, the AC50 was 39.8 µM [falling, single point].
In the case of `Cc1cc(C)cc(Nc2nnc(-n3nc(C)cc3C)c3ccccc23)c1`, the AC50 is reported as 39.8 µM [falling, single point].
In the case of `Cc1cccc(OCC(=O)Nc2ccc(Cl)c(-c3nc4ccccc4[nH]3)c2)c1`, the AC50 is reported as 10 µM [falling, partial curve].
With `CCN1CCN(Cc2c(O)ccc3oc(C)c(C(=O)Nc4ccc(C)cc4C)c23)CC1` the AC50 was 31.6 µM [falling, partial curve].
With `CCc1ccccc1NC(=O)CSc1ncc(S(=O)(=O)c2ccccc2)c(=O)[nH]1` the AC50 was 39.8 µM [falling, single point].
In the case of `CCN(CC(=O)Nc1c(C(=O)OC)[nH]c2ccc(Cl)cc12)c1ccc2c(c1)OCO2`, the AC50 is reported as 10 µM [falling, partial curve].
In the case of `Cc1oc(-c2ccc(Cl)cc2)nc1CSCC(=O)NCc1ccccc1Cl`, the AC50 is reported as 31.6 µM [falling, single point].
With `CCC(=O)N1CCc2cc(Br)cc(S(=O)(=O)N3CCCC(C(=O)NCc4ccc(OC)cc4)C3)c21` (stereo unspecified) the AC50 was 15.8 µM [falling, partial curve].
With `O=C(c1ccccc1)c1coc2ccc(O)c(Cl)c12` the AC50 was 20 µM [falling, partial curve].
For `CCCOc1ccc(C2c3c(-c4ccccc4O)n[nH]c3C(=O)N2CCCOCC)cc1OCC` (stereo unspecified), the AC50 was 39.8 µM [falling, single point].
